In the assay the test system is osteoclast formation from PBMC. The assay is described as follows: in vitro osteoclast formation assay (RANKL/M-CSF, MTS/TRAP). To be noted: protocol of Example 2, PBMC with RANKL and M-CSF, read-out: IC50 (osteoclast formation inhibition). It is filed as cell-based. The procedure:
Each of the kavalactones isolated in Example 1 was studied in an in vitro osteoclast formation assay. The protocol used (essentially that described in T. Yoneda et al., Endocrinology, 129(2):683-689 (1991) and H. Zhou et al., J Biol. Chem., 272, 14926 (2001)) is as follows:
(A) Osteoclast Formation Culture
1) Prepare assay wells (n=4) for each dilution of a test compound in a 384-plate. Each well contains 25 μl of 2× conc. of the compound in 10% FBS-media/0.5% DMSO.
2) Suspend PBMC in 10% FBS-media supplemented with 40 ng/ml of RANKL and 20 ng/ml of human M-CSF at 1.5 M cells/ml.
3) Vortex cell suspension and filtrate through mesh filter to remove cell aggregates.
4) Inoculate 25 μl of cell suspension to each well.
5) Centrifuge the assay plate at 1500 rpm (˜700 g) for 1 min.
6) Start osteoclast formation culture in a 5% CO2-incubator.
7) After 48 h of the culture, replenish 10 μl of 10% FBS-media supplemented with 120 ng/ml of RANKL and 60 ng/ml of M-CSF. Continue the culture until multiple osteoclasts are visible in control wells (up to 4˜5 days).
1) Add 6 μl of MTS reagent to each well and further incubate 1˜2 hrs.
2) Measure absorbance at 490 nm.
3) Discard MTS/culture media and fix cells in 60% acetone/0.38 M citrate buffer, pH 5.4 for 30 sec. Rinse cells with MQ once and air-dried. […]
5) Measure absorbance at 405 nm. […]

The text below walks through data of patent US20030229137A1, “Methods of inhibiting osteoclast activity” (priority 2001, published 2003).

A value given as a limit tells only on which side of the number the result lay.

The term IC50 denotes the concentration needed to halve the response being measured. Take `CC/C(=C(\c1ccccc1)c1ccc(OCCN(C)C)cc1)c1ccccc1` [tamoxifen, reference compound]: the IC50 was less than 100 nM.
